In PubChem BioAssay AID624291 (National Center for Advancing Translational Sciences (NCATS), 2012):
Among all 350,000 compounds or so, about 220 (0.063%) were called active. The shares of active, inactive and inconclusive entries below differ from those in the screen. The call rests on the fitted dose curve; in most records, active means well fitted activation curve with a large enough effect; inconclusive means small, poorly fitted or top-dose-only effect; inactive means no such curve, though single readings can be large or run the other way. Potencies beside an inconclusive call are fits to weak or partial responses and may not hold up.

test: qHTS for Activators of Integrin-Mediated Alleviation for Muscular Dystrophy; details: alpha7betagal myoblasts, beta-gal FDG fluorescence, 48 h; activation: at 38.3 µM (top of the series); further: nearly all actives have a fitted effect of over 60% in size;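 on activation: 100% = response of the positive control SU9516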
In short: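 alpha7betagal+/- myoblasts (passage 13, 250/well) treated 48 h at 37C with compounds at 1:260 dilution of DMSO stock. Lysed, then beta-galactosidase activity read as FDG fluorescence (ex 480/em 540) after 30 min, with pre-read for autofluorescence.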
Potency means the concentration at half of the fitted maximal effect.

activation, inactive:
C=CCC[C@@H](Cc1ccc(F)cc1)C(=O)OC[C@@H](NC(=O)[C@@H](CC=C)CC(=O)N[C@@H](CO)Cc1ccccc1)C(C)(C)C -17.4%
C#CCn1c(=NC(=O)c2ccc(Cl)s2)sc2cccc(OC)c21 7.01%
CC1=NN(c2nc(C)cc(C)n2)C(=O)C1CCC(C)C (centres undefined) -5.93% [at 7.66 µM]
CCN(CC(=O)NC(=O)NCc1ccco1)Cc1ccccc1 -38.3%
CCOc1ccc(-c2nc(C#N)c(N3CCN(CC)CC3)o2)cc1 -29.7%
Cc1ccc(NC(=O)C(NC2CCCc3ccccc32)c2ccccc2)cc1Cl (centres undefined) -32.3%
CCc1ccc(N2C(=O)C(Cl)=C(Nc3ccc(C(=O)N4CCCC4)cc3)C2=O)cc1 0.385%
CN(C(=S)NC(=O)CCCOc1ccc(Cl)cc1Cl)c1ccccc1 -44.8%
O=C(/C=C/c1ccc(Cl)cc1Cl)Nc1cccc(S(=O)(=O)NC2=NCCCCC2)c1 12.8%
COC(=O)Cn1nc(-c2ccccc2)c2ccccc2c1=O -9.35%
Cc1ccc(/C=c2\sc3n(c2=O)CN(c2ccc(Br)cc2)CN=3)o1 6.9%
COc1cccc(NC(=O)CN(C)C(=O)CSCC(=O)Nc2ccc(C)cc2)c1 0%
COc1ccccc1NC(=O)CC(c1ccc(OC(C)C)cc1)c1ccccc1OC (centres undefined) -26.9%
CC1CN(S(=O)(=O)c2cccc(C(=O)NCC(c3cccs3)N3CCOCC3)c2)CC(C)O1 (centres undefined) -11.4%
COC(=O)C1CSC(c2ccc(Cl)cc2)N1C(=O)c1ccccc1 (centres undefined) 3.17%
COc1ccc(C(N)=O)c(OCC(=O)Nc2cc(C)on2)c1 18%
CN(C)C(=O)C1C2NC(=S)N(c3ccccc3)C1(C)Oc1ccccc12 (centres undefined) -3.83%
Cc1nc2nc(SCC(=O)NCCCN3CCCC(C)C3)nn2c(C)c1Cc1ccccc1Cl (centres undefined) -25.3%
COc1ccc(OC)c(Nc2cc3ccccc3c(=O)[nH]2)c1 -21.3%
CCCCn1cnc2c(cnn2-c2ccc(Cl)cc2)c1=O -7.92%
CCOC(=O)c1c(-c2ccccc2)oc2ccc(OCC)cc12 -0.758%
O=C1CSC(=S)N1Cc1cccnc1 -55.4%
COc1ccccc1N1CCN(CCCn2c(=S)[nH]c3ccccc3c2=O)CC1 -37.1%

3 entries out of the list, arranged by molar mass, smallest number first:
activation, inactive:
COC(=O)C1CSC(c2ccc(Cl)cc2)N1C(=O)c1ccccc1 (centres undefined) 3.17%
COc1ccccc1N1CCN(CCCn2c(=S)[nH]c3ccccc3c2=O)CC1 -37.1%
CCc1ccc(N2C(=O)C(Cl)=C(Nc3ccc(C(=O)N4CCCC4)cc3)C2=O)cc1 0.385%

By substructure: the entries above with two or more sulfur atoms
activation, inactive:
C#CCn1c(=NC(=O)c2ccc(Cl)s2)sc2cccc(OC)c21 7.01%
CC1CN(S(=O)(=O)c2cccc(C(=O)NCC(c3cccs3)N3CCOCC3)c2)CC(C)O1 (centres undefined) -11.4%
O=C1CSC(=S)N1Cc1cccnc1 -55.4%

Next part:

Potency, active:
COC(=O)c1ccccc1NC(=O)c1cc[n+]([O-])cc1 3.98 µM

Potency, inconclusive:
COc1cc(/C=N/n2cnnc2)ccc1OC(=O)c1ccco1 3.16 µM [activator, single point]
COC1=CC(=O)OC(c2ccco2)C1 (centres undefined) 0.398 µM [activator, full curve, poor fit]
Cc1ccccc1NC(=O)N1CCN(C/C=C/c2ccccc2)CC1 28.2 µM [activator, single point]
COc1cccc(C(=O)NCC(=O)N2CCC3(CC2)NCCc2[nH]cnc23)c1OC 5.01 µM [activator, single point]
O=C(CCC(=O)N1CCN(S(=O)(=O)c2ccc(Cl)cc2)CC1)Nc1ccc(Cl)cc1Cl 12.6 µM [activator, partial curve, poor fit]
COc1cc(OC)cc(C(=O)NCc2ccc(-n3cccc3)cc2)c1 1.58 µM [activator, partial curve, poor fit]
COc1ccc(CCNc2cc(=O)[nH]c(N)n2)cc1 3.16 µM [activator, partial curve, poor fit]
CCN(CC)CCN(C(=O)c1ccc2ncsc2c1)c1nc2cc3c(cc2s1)OCO3 2.51 µM [activator, single point]
O=C(c1ccccc1Cl)N1CCN(S(=O)(=O)N2CCCCC2)CC1 11.2 µM [activator, partial curve, poor fit]
O=C(COS(=O)c1ccccc1)Nc1cc(Cl)ccc1N1CCOCC1 (centres undefined) 28.2 µM [activator, single point]
Cn1nc(N2CCN(S(=O)(=O)c3ccccc3)CC2)c(=O)n(C)c1=O 2.82 µM [activator, single point]
CN(C)C1(CNC(=O)C2CCC(=O)N(Cc3ccc(Cl)cc3)C2)CCCCC1 (centres undefined) 3.55 µM [activator, single point]
CCOc1ccc(Br)cc1S(=O)(=O)Nc1ccc(C(=O)OCC(=O)Nc2ccc(C#N)cc2)cc1 3.98 µM [activator, single point]
COc1ccc(C(=O)NC(=S)NNC(=O)c2ccccc2C)cc1 4.47 µM [activator, single point]
O=C(CSc1nc2ccccc2s1)Nn1cnnc1 5.01 µM [activator, single point]
Cc1ccc(F)cc1NC(=O)CSc1nc(Nc2ccccc2)nc(N2CCOCC2)n1 28.2 µM [activator, single point]
Cc1occc1-c1nnc(SCC(=O)N2c3ccccc3CCc3ccccc32)n1C 10 µM [activator, partial curve, poor fit]
C[C@H](CO)N1C[C@H](C)[C@@H](CN(C)C(=O)Nc2ccccc2)Oc2ccc(NC(=O)CCC(F)(F)F)cc2C1=O 8.91 µM [activator, partial curve]
CC(=O)c1cccc(NC(=O)C=C(C)C)c1 22.4 µM [activator, single point]
CC(C)(C)C(=O)Nc1cc(S(=O)(=O)Nc2ccc(Cl)cc2)ccc1Cl 11.2 µM [activator, single point]
CC(C)N1CCC(N2CCN(Cc3cccc4nonc34)CC2CCO)CC1 (centres undefined) 11.2 µM [activator, partial curve, poor fit]
COCCCNc1nc2nonc2nc1NCCSC 2.82 µM [activator, single point]
Cc1cc(CN(C)C(=O)c2cc(COc3ccc(C)c(C)c3)on2)n[nH]1 2.82 µM [activator, partial curve, poor fit]
COc1ccc(NC(=O)COC(=O)Cn2cnc3ccccc3c2=O)c(OC)c1 1.26 µM [activator, partial curve, poor fit]
N/C(=N\OC(=O)CSc1ccccc1)c1ccccn1 6.31 µM [activator, partial curve]
CCOc1ccc(N(CC(=O)N/N=C/c2ccc(OC(C)C)cc2)S(C)(=O)=O)cc1 2.82 µM [activator, single point]
Cc1[nH]c2ccccc2c1/C=N\NC(=O)c1ccco1 1.41 µM [activator, partial curve, poor fit]
CCc1ccc(C(C(=O)NC2CCCC2)N(CCOC)C(=O)CCC(=O)Nc2cc(C)on2)cc1 (centres undefined) 5.01 µM [activator, single point]
Cc1cc(=O)oc(C)c1C(=O)Nc1ccc(N(C)C)cc1 3.55 µM [activator, single point]
Cc1noc(C)c1C(=O)OCC(=O)Nc1ccc(C(N)=O)cc1 0.891 µM [activator, partial curve, poor fit]
CCC(c1nnnn1Cc1ccc(OC)cc1)N1CCN(C(=O)c2ccco2)CC1 (centres undefined) 3.16 µM [activator, single point]
O=C(COc1ccccc1Cl)Nc1ccc2c(c1)OCO2 10 µM [activator, partial curve, poor fit]
COc1ccc(N2CCN(S(=O)(=O)c3cc(Br)cnc3N)CC2)cc1 5.01 µM [activator, single point]
CSc1ccc(Cn2nnc(C(=O)NCCc3ccc(Cl)cc3)c2N)cc1 7.94 µM [activator, single point]
COc1ccc(C(=O)Nc2cc(OC)nc(OC)n2)cc1 2.82 µM [activator, partial curve, poor fit]
Cc1ccc(-c2cc(C(F)F)nc(N3CCOCC3)n2)cc1 2.82 µM [activator, partial curve, poor fit]
Cc1cccc(NC(=O)CCNC(=O)c2ccc(Br)cc2)c1C 2.82 µM [activator, partial curve, poor fit]
C=CCNC(=S)N1CCN(Cc2ccc3c(c2)OCO3)CC1 2.82 µM [activator, single point]
CCOc1cnc(-c2c(-c3c(F)cccc3Cl)noc2C)o1 3.16 µM [activator, partial curve, poor fit]
CC(C)NC(=O)c1c(O)c2ccccc2[nH]c1=O 5.01 µM [activator, single point]
NC(=O)c1cc(-c2csc(NCCc3ccccc3)n2)ccc1O 11.2 µM [activator, single point]
CCOc1cc(C(C(=O)NCC2CCCO2)N(C(=O)Cn2nnc3ccccc32)c2ccccc2C(C)=O)ccc1O (centres undefined) 28.2 µM [activator, single point]
N/C(=N\OC(=O)c1cnn(-c2ccccc2)c1C(F)(F)F)c1cc(C(F)(F)F)cc(C(F)(F)F)c1 11.2 µM [activator, single point]
CCOC(=O)c1c(C)[nH]c(C)c1S(=O)(=O)N(C)CC(=O)Nc1ccc(C)cn1 5.01 µM [activator, single point]
CN1CCC/C1=C1/C(=O)N(c2ccccc2)N=C1NC(=O)Nc1cccc(Cl)c1 28.2 µM [activator, single point]
